The assay concerns the target endogenous p53 (human (endogenous in HEK293T)) (UniProt P04637). The assay can be described thus: co-IP; purified recombinant RBBP6-p53BD added to HEK293T cell lysate, 3 h at 4°C; anti-p53 antibody, protein A agarose; beads washed 5 times with PBS; two elution steps; Western blot with anti-polyhistidine; only the binder purified. For orientation: A western blot detects proteins with antibodies after separation by electrophoresis.

These are yes or no findings as the source states them, for the method shown. Binding seen in cells or lysates may run through a third protein. Some binding calls cover weakened binding; strength is not graded here. Where a sequence is shown, tags or fusion partners need not be part of it.

In article PMC9916574 one finds binding data, which are given here for one molecule.

B1: p53 binding domain of Retinoblastoma binding protein 6 (RBBP6), polyhistidine-tagged (domain or fragment, UniProt Q7Z6E9-1 1380-1726)
chain: VSHEIIQHEVKSSKNSASSEKGKTKDRDYSVLEKENPEKRKNSTQPEKESNLDRLNEQGNFKSLSQSSKEARTSDKHDSTRASSNKDFTPNRDKKTDYDTREYSSSKRRDEKNELTRRKDSPSRNKDSASGQKNKPREERDLPKKGTGDSKKSNSSPSRDRKPHDHKATYDTKRPNEETKSVDKNPCKDREKHVLEARNNKESSGNKLLYILNPPETQVEKEQITGQIDKSTVKPKPQLSHSSRLSSDLTRETDEAAFEPDYNESDSESNVSVKEEESSGNISKDLKDKIVEKAKESLDTAAVVQVGISRNQSHSSPSVSPSRSHSPSGSQTRSHSSSASSAESQDS
Regarding B1, the binding entry is on record as “binds”.
